Source: PubChem BioAssay AID493014 (National Center for Advancing Translational Sciences (NCATS), 2011)
Some of the results follow. Shown are side measurements of this screen, not its main read-out; they come without a call. Compounds called inactive in the main read-out are mostly missing here. The note in brackets gives the kind of curve behind each potency; many fits are weak.

Experiment: qHTS Assay to Find Inhibitors of Chronic Active B-Cell Receptor Signaling
Settings: ABC-DLBCL IkBa-CBG/CBR reporter, luminescence ratio (green luciferase fused to IkBa over red control in TMD8 lymphoma cells), 4 h
In short: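 Cell line TMD8 (human ABC DLBCL), stably expressing tet-inducible CBG68-IkBa fusion and CBR; IMDM/0.5% FBS; cpd up to 46 uM; dox induction, 4 h, 37C/5% CO2; dual luminescence; green/red ratio; MG132 control.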

[1] = measured here: CBR red luminescence, cell number
[2] = measured here: IkBa-CBG green luminescence

| SMILES | AC50 [1] | AC50 [2] |
| --- | --- | --- |
| N/C(=N\c1nc2ccccc2o1)NC(=O)c1ccccc1 | 1.84 µM [falling, full curve] | – |
| CC(=O)Nc1nc(-c2ccc3ccccc3c2)cs1 | 2.24 µM [rising, partial curve] | – |
| O=C(Nc1cccc(S(=O)(=O)Nc2ccc(Cl)cc2)c1)c1ccc(Cl)nc1 | 18.4 µM [falling, partial curve, poor fit] | – |
| Cc1nn(CC(C)C)c(Cl)c1C(=O)N(c1ccc(Cl)cc1F)S(C)(=O)=O | 11.2 µM [falling, partial curve, poor fit] | – |
| CC(=O)Nc1ccc(NC(=O)c2ccc(C)c(S(=O)(=O)Nc3cccc(C)c3)c2)cc1 | 35.5 µM [falling, single point] | – |
| C=CC(=O)Nc1ccc(Nc2nc(NC3CCC(N(C)C)CC3)nc3c2ncn3C(C)C)cc1 (stereo not drawn) | 6.51 µM [falling, full curve] | – |
| CCOc1ccc(N=Cc2c(C)[nH]n(-c3nc4ccccc4[nH]3)c2=O)cc1 | 2.59 µM [falling, full curve] | – |
| Oc1ccccc1OCc1nc2ccccc2s1 | 18.4 µM [falling, single point] | – |
| Cc1c(C(=O)NN)[nH]c2ccc([N+](=O)[O-])cc12 | 10 µM [falling, partial curve] | – |
| COc1cccc(C(=O)N/N=C/c2cn[nH]c2-c2ccc(OC)cc2OC)c1 | 5.01 µM [falling, full curve] | – |
| N#CCCN/N=C(\Cc1nc2ccccc2[nH]1)c1ccccc1 | 29.1 µM [falling, single point] | – |
| CC(C)CCn1c(O)c(N=NC(=O)c2ccco2)c2ccccc21 | 4.61 µM [rising, full curve] | – |
| Oc1c(CN2CCN(c3ccccn3)CC2)cc(Cl)c2cccnc12 | 6.51 µM [rising, partial curve, poor fit] | – |
| CC1(c2nnc(-c3ccc(Cl)cc3)o2)CC(c2cccc(Cl)c2)=NO1 (stereo not drawn) | 22.4 µM [rising, single point] | – |
| Cc1noc(C)c1COc1ccccc1C(=O)NCCc1ccc(Cl)cc1 | 0.92 µM [rising, full curve] | – |
| COc1cccc(C(=O)N2N=C(c3cccc(OC)c3)CC2(O)C(F)(F)F)c1 (stereo not drawn) | 10 µM [falling, partial curve, poor fit] | – |
| COc1cccc(C2Nc3cccc4cccc(c34)N2)c1 | 6.31 µM [rising, single point] | – |
| COc1ccc(Cl)cc1C(=O)NNC(=O)c1ccncc1 | 35.5 µM [falling, single point] | – |
| CCCCCCOc1ccc(C(=O)O)cc1 | 35.5 µM [falling, single point] | – |
| CCc1ccc(C2=NN(CCC(=O)NCCc3ccc(Cl)cc3)C(=O)CC2)cc1 | 35.5 µM [falling, single point] | – |
| COc1ccc(NC(=O)c2ccc(OCC3CCCO3)cc2)cc1OC (stereo not drawn) | 23.1 µM [falling, single point] | – |
| CCCN(CC(=O)Nc1cc(Cl)ccc1Cl)C(=O)c1ccccn1 | 3.66 µM [rising, full curve] | – |

Of the compounds above, these have fluorine.

| SMILES | AC50 [1] | AC50 [2] |
| --- | --- | --- |
| Cc1nn(CC(C)C)c(Cl)c1C(=O)N(c1ccc(Cl)cc1F)S(C)(=O)=O | 11.2 µM [falling, partial curve, poor fit] | – |
| COc1cccc(C(=O)N2N=C(c3cccc(OC)c3)CC2(O)C(F)(F)F)c1 (stereo not drawn) | 10 µM [falling, partial curve, poor fit] | – |

More entries.

| SMILES | AC50 [1] | AC50 [2] |
| --- | --- | --- |
| COc1cccc(C2=NNC(=NCc3ccccc3)SC2)c1 | 7.08 µM [falling, partial curve, poor fit] | – |
| Cc1ccc(Sc2ccc(N)cn2)cc1 | 0.631 µM [falling, partial curve, poor fit] | – |
| O=C(COC(=O)c1ccncc1)Nc1ccc2c(c1)OCO2 | 6.51 µM [falling, partial curve, poor fit] | – |
| O=C(N/N=C(\CC(=O)c1cccs1)C(F)(F)F)c1ccncc1 | 35.5 µM [falling, single point] | – |
| CC(CNC(=O)c1cc(COc2ccc3ncccc3c2)on1)c1ccccc1 (stereo not drawn) | 35.5 µM [falling, single point] | – |
| Cc1nnc(Nc2ccc(Cl)c(C(F)(F)F)c2)[nH]c1=O | 3.55 µM [rising, full curve, poor fit] | – |
| COc1ccc(-c2c(C)cc3oc(=O)cc(-c4ccccc4)c3c2C)cc1OC | 4.11 µM [rising, partial curve, poor fit] | – |
| FC(F)(F)c1cccc(Nc2ncnc3ccccc23)c1 | 16.4 µM [rising, partial curve, poor fit] | 29.1 µM [falling, single point] |
| CN(O)/C=c1/ccc2c(n1)C(=O)C=CC=2 | 16.4 µM [rising, single point] | 18.4 µM [falling, single point] |
| CCOC(=O)c1ccc(NC(=O)CN2C(=O)NC3(CCC(C)CC3)C2=O)cc1 (stereo not drawn) | 35.5 µM [falling, single point] | – |
| O=c1c2ccccc2nc(SCc2ccc(F)cc2Cl)n1CCCN1CCOCC1 | 6.31 µM [rising, single point] | – |
| CCCN(C(=O)c1cc(S(=O)(=O)N2CCCCCC2)ccc1OC)C1CCS(=O)(=O)C1 (stereo not drawn) | 14.6 µM [rising, partial curve, poor fit] | – |
| CN1CCN(C(=O)/C(=C\c2cccs2)NC(=O)c2ccccc2)CC1 | 12.6 µM [rising, partial curve, poor fit] | – |
| CCOc1ccccc1C(=O)NN1C(=O)C2CCCCC2C1=O (stereo not drawn) | 0.13 µM [rising, full curve, poor fit] | – |
| CCc1c(C(=O)Nc2nnc(C3CC3)s2)csc1C | 29.1 µM [rising, single point] | – |
| Cc1sc2nc(CSc3ccccc3)nc(N3CCOCC3)c2c1C | 5.8 µM [rising, full curve] | – |
| CCOc1cc(/C=N/NC(=O)Cn2nc([N+](=O)[O-])cc2C)cc(Br)c1OCc1ccccc1C | 4.61 µM [rising, single point] | – |
| O=C(NC(=S)Nc1cnc2ccccc2c1)c1ccccc1 | 10 µM [falling, partial curve, poor fit] | – |
| Cc1ccc(N(O)C(=O)OCCNC(=O)Nc2ccccc2)cc1 | 7.08 µM [rising, partial curve, poor fit] | – |
| COc1ccccc1CNC(=O)COc1ccc(Br)c(C)c1 | 35.5 µM [falling, single point] | – |
| COc1ccc(C(=O)NNC(=O)c2snnc2C)cc1 | 8.91 µM [falling, partial curve, poor fit] | – |
| N#CC(C#N)=C1NC2(CCCCC2)Cc2ccccc21 | 15.8 µM [rising, single point] | – |

| SMILES | AC50 [1] | AC50 [2] |
| --- | --- | --- |
| Cc1cccc(NC(=O)CN2C(=S)NC(C)(C)CC2C)c1 (stereo not drawn) | 18.4 µM [falling, single point] | – |
| Cc1c(Cl)cccc1NC(=O)C1COc2ccccc2O1 (stereo not drawn) | 14.1 µM [rising, partial curve, poor fit] | – |
| COc1ccc(CCNC(=O)c2ccc(CNS(=O)(=O)c3ccccc3)cc2)cc1OC | 25.9 µM [rising, partial curve, poor fit] | – |
| COc1ccc(CCNCC2C(Oc3ccc(Cl)cc3)C(=O)N2c2ccccc2C)cc1OC (stereo not drawn) | 17.8 µM [falling, single point] | – |
| C=CCOc1ccnc(-c2ccccc2)n1 | 0.447 µM [rising, full curve, poor fit] | – |
| COc1ccc(OC)c2[nH]c(=O)c(CCNC(=O)c3ccc4c(c3)OCO4)cc12 | 0.891 µM [rising, partial curve, poor fit] | – |
| O=C(Nc1ccccc1F)c1ccc(C(=O)c2ccccc2)cc1 | 5.01 µM [falling, partial curve, poor fit] | – |
| O=C(Nc1cccc(-c2ccc(N3CCCCC3)nn2)c1)C(F)(F)F | 6.31 µM [falling, partial curve, poor fit] | – |
| O=C(Cn1nnc(-c2ccccc2-n2cnnn2)n1)c1ccccc1 | 3.66 µM [falling, full curve, poor fit] | – |
| C/C(=N/NC(=O)c1ccco1)c1cccc(NC(=O)c2ccc(C)s2)c1 | 29.1 µM [falling, single point] | – |
| COc1cccc(C(=O)OC2CCN(C)CC2)c1 | 35.5 µM [rising, single point] | – |
| CCOC(=O)C1=C(C)N(c2ccccc2)C(=O)NC1c1cccc([N+](=O)[O-])c1 (stereo not drawn) | 18.4 µM [falling, single point] | – |
| Cc1ccccc1Nc1c(-c2ccncc2)nc2ccc(Cl)cn12 | 11.2 µM [falling, single point] | 14.1 µM [rising, partial curve, poor fit] |
| O=C(NCCC1=CCCCC1)C1CCN(C(=O)Nc2ccccc2)CC1 | 6.51 µM [rising, single point] | – |
| Cc1ccc(/C=C2/SC(=S)N(CCC(=O)N3CCN(C)CC3)C2=O)cc1 | 11.2 µM [falling, partial curve, poor fit] | – |
| Cc1ccc(NNC(=O)c2ccno2)c(C)c1 | 0.2 µM [rising, full curve, poor fit] | – |
| O=C(COC(=O)c1ccc(Cl)nc1)NCc1cccs1 | 3.98 µM [rising, full curve, poor fit] | – |
| O=C(O)c1ccc(S(=O)(=O)c2ccc3c(c2)C(=O)N(NC(=O)c2cccnc2)C3=O)cc1 | 11.2 µM [falling, single point] | – |
| O=C(Nc1ccc(Cl)c([N+](=O)[O-])c1)ONC1=NCCCCC1 | 3.16 µM [falling, partial curve, poor fit] | – |
| CC1(C)CC(=O)CC2(C1)NCC(c1ccccc1)c1c2[nH]c2ccccc12 (stereo not drawn) | 35.5 µM [falling, single point] | – |
| O=C(COc1cccc2ccccc12)N1CCN(c2ccccc2)CC1 | 18.4 µM [falling, single point] | – |
